These are yes or no findings as the source states them, for the method shown. In cells and extracts the contact can be indirect. Some entries that bind do so weakly or less than the wild type. Tags and fused reporters may be left off the sequences shown.
Target: Pin1 (peptidyl prolyl cis/trans isomerase) (human (endogenous in HEK293)), Q13526
Assay: co-IP
Details: remark: other sources report otherwise

B1: FLAG-full length KHSRP (K-homology splicing regulatory protein), Q92945 1-711 (protein)
chain: MSDYSTGGPPPGPPPPAGGGGGAGGAGGGPPPGPPGAGDRGGGGPGGGGPGGGSAGGPSQPPGGGGPGIRKDAFADAVQRARQIAAKIGGDAATTVNNSTPDFGFGGQKRQLEDGDQPESKKLASQGDSISSQLGPIHPPPRTSMTEEYRVPDGMVGLIIGRGGEQINKIQQDSGCKVQISPDSGGLPERSVSLTGAPESVQKAKMMLDDIVSRGRGGPPGQFHDNANGGQNGTVQEIMIPAGKAGLVIGKGGETIKQLQERAGVKMILIQDGSQNTNVDKPLRIIGDPYKVQQACEMVMDILRERDQGGFGDRNEYGSRIGGGIDVPVPRHSVGVVIGRSGEMIKKIQNDAGVRIQFKQDDGTGPEKIAHIMGPPDRCEHAARIINDLLQSLRSGPPGPPGGPGMPPGGRGRGRGQGNWGPPGGEMTFSIPTHKCGLVIGRGGENVKAINQQTGAFVEISRQLPPNGDPNFKLFIIRGSPQQIDHAKQLIEEKIEGPLCPVGPGPGGPGPAGPMGPFNPGPFNQGPPGAPPHAGGPPPHQYPPQGWGNTYPQWQPPAPHDPSKAAAAAADPNAAWAAYYSHYYQQPPGPVPGPAPAPAAPPAQGEPPQPPPTGQSDYTKAWEEYYKKIGQQPQQPGAPPQQDYTKAWEEYYKKQAQVATGGGPGAPPGSQPDYSAAWAEYYRQQAAYYGQTPGPGGPQPPPTQQGQQQAQ
binding: binds

Source: article doi:10.1101/2021.12.06.470227
